The target of experiment [1] is Mutant KIT (MT-KIT) of GIST430 cells (exon 11 in-frame deletion) (human (endogenous in GIST430)) (UniProt P10721). Nature of the experiment: co-IP; 500 µg of GIST cell lysate mixed with a KIT antibody (Cell Signaling Technology) or control IgG and protein A/G PLUS-Agarose, 4 °C overnight; washed, eluted by boiling; western blot of endogenous partners.
Experiment [2] shares this target. The description is as above. The source holds these as a separate data set.

Amino acid sequences for entries named in this document (tags omitted). A change or cut given only in a name is not applied to a line headed by its entry.
UniProt P10721: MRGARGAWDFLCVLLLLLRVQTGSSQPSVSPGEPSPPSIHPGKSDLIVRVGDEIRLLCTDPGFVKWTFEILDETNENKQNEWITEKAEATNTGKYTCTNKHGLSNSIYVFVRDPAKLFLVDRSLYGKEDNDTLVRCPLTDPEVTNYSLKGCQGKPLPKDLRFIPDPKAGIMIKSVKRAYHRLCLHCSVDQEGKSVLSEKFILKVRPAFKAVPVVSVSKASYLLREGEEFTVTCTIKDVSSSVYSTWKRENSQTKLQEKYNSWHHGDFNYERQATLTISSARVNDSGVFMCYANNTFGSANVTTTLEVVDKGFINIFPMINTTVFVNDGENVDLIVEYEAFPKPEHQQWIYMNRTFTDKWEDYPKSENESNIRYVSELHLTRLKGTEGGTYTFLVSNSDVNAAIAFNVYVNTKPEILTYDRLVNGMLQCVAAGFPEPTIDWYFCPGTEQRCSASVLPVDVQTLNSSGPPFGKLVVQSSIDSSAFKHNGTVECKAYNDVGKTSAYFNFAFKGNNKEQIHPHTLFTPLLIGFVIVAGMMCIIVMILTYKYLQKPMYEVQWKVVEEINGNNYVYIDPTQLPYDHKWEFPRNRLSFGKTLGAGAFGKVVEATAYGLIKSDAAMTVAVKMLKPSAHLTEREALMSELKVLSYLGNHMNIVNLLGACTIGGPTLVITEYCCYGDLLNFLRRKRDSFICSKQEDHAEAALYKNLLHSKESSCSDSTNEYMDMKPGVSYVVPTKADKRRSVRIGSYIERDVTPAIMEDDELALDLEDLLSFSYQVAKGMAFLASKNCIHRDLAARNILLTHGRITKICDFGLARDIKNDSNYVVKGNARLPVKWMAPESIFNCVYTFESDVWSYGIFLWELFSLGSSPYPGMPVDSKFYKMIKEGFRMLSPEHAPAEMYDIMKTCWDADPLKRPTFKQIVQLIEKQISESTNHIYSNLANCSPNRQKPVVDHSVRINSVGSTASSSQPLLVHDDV
UniProt P62993: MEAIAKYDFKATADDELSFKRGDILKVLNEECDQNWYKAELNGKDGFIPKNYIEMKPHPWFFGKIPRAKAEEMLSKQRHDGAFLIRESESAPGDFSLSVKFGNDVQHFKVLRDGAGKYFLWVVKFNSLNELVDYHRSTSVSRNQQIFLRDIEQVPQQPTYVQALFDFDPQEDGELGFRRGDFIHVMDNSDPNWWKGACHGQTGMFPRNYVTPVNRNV

Where two headings read alike, the source gives them in different places. Results are given in words; binding and its absence hold for the method and conditions named. In cells and extracts the contact can be indirect. A result given as binding can be weak or reduced; the word gives no strength.

As to GRB2 (from UniProt P62993 1-217), in experiment [1], the binding result is “binds”.

B1: Basic leucine zipper nuclear factor 1 (BLZF1) (protein, UniProt Q9H2G9 1-400)
chain: MTTKNLETKVTVTSSPIRGAGDGMETEEPPKSVEVTSGVQSRKHHSLQSPWKKAVPSESPGVLQLGKMLTEKAMEVKAVRILVPKAAITHDIPNKNTKVKSLGHHKGEFLGQSEGVIEPNKELSEVKNVLEKLKNSERRLLQDKEGLSNQLRVQTEVNRELKKLLVASVGDDLQYHFERLAREKNQLILENEALGRNTAQLSEQLERMSIQCDVWRSKFLASRVMADELTNSRAALQRQNRDAHGAIQDLLSEREQFRQEMIATQKLLEELLVSLQWGREQTYSPSVQPHSTAELALTNHKLAKAVNSHLLGNVGINNQKKIPSTVEFCSTPAEKMAETVLRILDPVTCKESSPDNPFFESSPTTLLATKKNIGRFHPYTRYENITFNCCNHCRGELIAL
For B1, the binding result in experiment [2] is “binds”.

For the origin of these results see PMC10589262.
